{"source": "paper PMC12040169", "about": "(PLOS Biology, 2025)", "note": "The other results are listed elsewhere or left out.", "data": [{"test_system": "T1, CTL2-GFP (C. trachomatis L2/434/Bu, GFP-expressing)", "T1 construct": "L2/434/Bu, GFP-expressing", "design": "species or system HeLa; Intracellular C. trachomatis growth in HeLa cells, bulk GFP fluorescence relative to DMSO", "details": "bulk GFP, single well; 28.5 h, 10 µM; inhibitor", "units": {"% of control remaining": "%"}, "values": [{"smiles": "O=C1NCC2(CCN(Cc3ccccc3)CC2)Oc2ccccc21", "note": "[CBK285323]", "% of control remaining": 130.344}, {"smiles": "Cc1cccc(OCCn2cncc2-c2cnn(C)c2)c1C", "note": "[CBK281497]", "% of control remaining": 122.01}, {"smiles": "N#C/C(=C/c1ccc(Sc2nc3ccccc3[nH]2)o1)c1ccc(C(=O)O)cc1", "note": "[CBK269141]", "% of control remaining": 106.098}, {"smiles": "O=C(Nc1ccccc1Cl)C1CCCN1S(=O)(=O)c1ccc(F)cc1", "note": "(centres unmarked) [CBK110161]", "% of control remaining": 100}, {"smiles": "CSc1nsc(SCC(=O)Nc2ccccc2C#N)n1", "note": "[CBK269826]", "% of control remaining": 100.425}, {"smiles": "COc1cc(CNCc2cccnc2)ccc1OCc1cccs1", "note": "[CBK270082C]", "% of control remaining": 109.028}, {"smiles": "Cc1c(-c2ccccc2)n[nH]c1C(=O)NCCCc1ccccn1", "note": "[CBK282445]", "% of control remaining": 129.303}, {"smiles": "Cc1ccc(N2C(=O)c3ccc(S(=O)(=O)c4cccc(C(=O)O)c4)cc3C2=O)c(C)c1", "note": "[CBK262783]", "% of control remaining": 100}, {"smiles": "O=C(CN1C2CCC1CC(O)(c1ccco1)C2)Nc1ccccc1F", "note": "(centres unmarked) [CBK284109]", "% of control remaining": 135.153}, {"smiles": "COc1ccc2[nH]cc(CC(=O)Nc3cc(C)nc4ccccc34)c2c1", "note": "[CBK122732]", "% of control remaining": 95.3608}, {"smiles": "O=C(c1cccc(O)c1)N1CCN(Cc2cn3ccsc3n2)CC1", "note": "[CBK305275]", "% of control remaining": 125.038}, {"smiles": "Cc1[nH]nc2c1C(c1ccc(Cl)cc1)N(CCc1c[nH]c3ccccc13)C2=O", "note": "(centres unmarked) [CBK287919]", "% of control remaining": 120.305}, {"smiles": "OC1(c2cccnc2)CCCC2CN(Cc3cc(F)ccc3F)CC21", "note": "(centres unmarked) [CBK284513]", "% of control remaining": 90.1475}, {"smiles": "c1ccc(C2=Nn3c(Cn4nnc5ccccc54)nnc3SC2)cc1", "note": "[CBK268232]", "% of control remaining": 113.205}, {"smiles": "Oc1ccc(-n2ncc(-c3ccc(Cl)cc3)n2)cc1", "note": "[CBK112794]", "% of control remaining": 110.959}, {"smiles": "CS(=O)(=O)c1ccc2nc(NC(=O)Cc3ccccc3)sc2c1", "note": "[CBK287339]", "% of control remaining": 132.567}, {"smiles": "Cn1c(CN2CCCC2)nc2cc(NC(=O)C3CCCCC3)ccc21", "note": "[CBK307418]", "% of control remaining": 102.08}, {"smiles": "COc1cc(NC(=O)CSc2nncn2C)c(OC)cc1Cl", "note": "[CBK270307]", "% of control remaining": 119.5}, {"smiles": "O=C(c1cc2c(F)cccc2[nH]1)N1CCCCC1CCN1CCCC1", "note": "(centres unmarked) [CBK281612]", "% of control remaining": 159.847}, {"smiles": "Cc1cnc2[nH]c(C3CCN(C(=O)c4cnn(C)c4C)CC3)cc2c1", "note": "[CBK284684]", "% of control remaining": 111.288}, {"smiles": "Cc1cc2c(s1)c1cnn(CC(=O)NC3CC3)c(=O)c1n2C", "note": "[CBK284246]", "% of control remaining": 149.169}, {"smiles": "CS(=O)(=O)N1CC2(CCN(Cc3ccccc3)CC2)c2ccccc21", "note": "[CBK084003]", "% of control remaining": 107.371}, {"smiles": "C[C@H](c1ccccc1)n1c(=O)[nH]c2ncc(-c3cccc4ccccc34)nc21", "note": "[CBK064241]", "% of control remaining": 102.517}, {"smiles": "O=C(Oc1ccc(/C=N/NC(=O)C2COc3ccccc3O2)cc1)c1cccnc1", "note": "(centres unmarked) [CBK262811]", "% of control remaining": 100}, {"smiles": "COc1ccccc1-c1ccnc(N[C@H]2CO[C@H]3[C@@H]2OC[C@@H]3NC(=O)C2CCCCC2)n1", "note": "[CBK289529]", "% of control remaining": 122.233}, {"smiles": "COc1ccc(CCN2CCCN(c3nccc(OCc4ccc(Cl)c(Cl)c4)n3)CC2)cc1OC", "note": "[CBK083965]", "% of control remaining": 102.763}, {"smiles": "Cc1[nH]c2c(C(=O)Nc3cccc(CN4CCOC4=O)c3)cccc2c1C", "note": "[CBK298338]", "% of control remaining": 145.12}, {"smiles": "CC(C)Cn1cnc(S(=O)(=O)N2CCN(CC(=O)NC3CC3)CC2)c1", "note": "[CBK304223]", "% of control remaining": 96.1096}, {"smiles": "CCc1ccc(-c2noc(CSc3n[nH]c(=O)n3CCCOC)n2)cc1", "note": "[CBK295656]", "% of control remaining": 139.691}, {"smiles": "CCC(=O)N(C)C(CO)c1cc(OC)ccc1Br", "note": "(centres unmarked) [CBK304156]", "% of control remaining": 139.176}, {"smiles": "CC(CC(=O)O)CC(=O)N1CCC2(CC1)NC(=O)Cc1ccccc12", "note": "(centres unmarked) [CBK047281]", "% of control remaining": 104.457}, {"smiles": "O=C(Nc1ncnc2nc[nH]c12)NC1CCCCC1", "note": "[CBK022860]", "% of control remaining": 118.087}, {"smiles": "CCOC(=O)c1cn(CC#N)c2cc(F)c(F)cc2c1=O", "note": "[CBK304211]", "% of control remaining": 111.271}, {"smiles": "CC(C)COc1ccc(-c2nonc2NC(=O)c2cccs2)cc1", "note": "[CBK299822]", "% of control remaining": 63.0959}, {"smiles": "CCN1CC2(CCN(CCOc3ccccc3)CC2)c2ccccc21", "note": "[CBK122705]", "% of control remaining": 116.174}, {"smiles": "O=C(O)c1ccc(NS(=O)(=O)c2ccc3c(c2)C(=O)c2ccccc2C3=O)cc1", "note": "[CBK299828]", "% of control remaining": 88.5023}, {"smiles": "O=C1NC2(CCCC2)N=C1c1ccc(Cl)cc1Cl", "note": "[CBK288042]", "% of control remaining": 132.884}, {"smiles": "COc1ccc(C(NC(=O)C2CCN(CCn3cnc4c3c(=O)n(C)c(=O)n4C)CC2)c2ccco2)cc1", "note": "(centres unmarked) [CBK148308]", "% of control remaining": 165.053}, {"smiles": "O=C(NCc1cccc2ccccc12)N1CCN(c2ccccc2)CC1", "note": "[CBK155175]", "% of control remaining": 132.447}, {"smiles": "c1ccc(OCCOc2nccnc2-c2cc3ccccc3s2)cc1", "note": "[CBK106787]", "% of control remaining": 116.873}, {"smiles": "COC(=O)N1CC2(CCCCC2NCc2c[nH]c(C)n2)c2ccccc21", "note": "(centres unmarked) [CBK083547T]", "% of control remaining": 166.203}, {"smiles": "CC(=O)N1CCc2sccc2C1c1ccc(NCc2ccc(F)cc2)cc1", "note": "(centres unmarked) [CBK286442]", "% of control remaining": 117.982}, {"smiles": "COCc1cccc(-c2ncc(OCc3ccccn3)nc2N)c1", "note": "[CBK145108]", "% of control remaining": 100}, {"smiles": "COCc1ccc(C(=O)N2CCC(c3cc4ncccc4[nH]3)CC2)o1", "note": "[CBK283373]", "% of control remaining": 127.412}, {"smiles": "COCCNC(=O)CN(C)c1nc(-c2ccncc2)nc2ccccc12", "note": "[CBK305611]", "% of control remaining": 104.077}, {"smiles": "O=C(O)CCC(=O)Nc1ccc(-c2ccc([N+](=O)[O-])cc2)cc1", "note": "[CBK261637]", "% of control remaining": 93.328}, {"smiles": "CCN(CC)CCN1C(=O)C(O)=C(C(=O)c2ccc(Cl)cc2)C1c1cccc(Br)c1", "note": "(centres unmarked) [CBK265165]", "% of control remaining": 107.351}, {"smiles": "CC(=O)Nc1cccc2c1NSN2", "note": "[CBK027082]", "% of control remaining": 123.039}, {"smiles": "Cc1ccccc1Cn1nc(C)c(NC(=O)c2nc3n(n2)C(C(F)F)CC(C)N3)c1C", "note": "(centres unmarked) [CBK267633]", "% of control remaining": 104.947}, {"smiles": "CSc1nccc(OCCOc2nccnc2N2CCNCC2)n1", "note": "[CBK000718G]", "% of control remaining": 131.576}, {"smiles": "CC1CN(C(=O)OC(C)(C)C)CCN1c1nc2ccccc2nc1O", "note": "(centres unmarked) [CBK003877C]", "% of control remaining": 110.414}, {"smiles": "COc1ccc(-c2cc(C(=O)N[C@H]3CCN(Cc4ccccc4)C3)cnc2-c2ccccc2)cn1", "note": "[CBK037605]", "% of control remaining": 103.568}, {"smiles": "COc1cccc(C2C(C(=O)c3ccc(Br)cc3)=C(O)C(=O)N2CCCN2CCOCC2)c1", "note": "(centres unmarked) [CBK264862]", "% of control remaining": 77.1765}, {"smiles": "CC(=O)c1ccc(-c2cc(C(=O)Nc3ccc4c(c3)OCCO4)cnc2-c2ccc(Cl)cc2)s1", "note": "[CBK036627]", "% of control remaining": 91.6146}, {"smiles": "COc1ccc(C(=O)N2CCN(Cc3ccccc3)CC2)c(OC)n1", "note": "[CBK200169]", "% of control remaining": 124.052}, {"smiles": "COCCn1c(=O)n(Cc2ccc(F)cc2)c2cccnc21", "note": "[CBK283886]", "% of control remaining": 147.258}, {"smiles": "COc1cccc(NC(=O)CC(CN2CCN(CCC#N)CC2)C(=O)O)c1", "note": "(centres unmarked) [CBK286801]", "% of control remaining": 135.454}, {"smiles": "COc1cccc(/C=N/NC(=O)C(=O)NCc2ccccn2)c1", "note": "[CBK262268]", "% of control remaining": 119.909}, {"smiles": "NNC(=O)c1cc(-c2ccc(-c3ccccc3)cc2)nc2ccc(Br)cc12", "note": "[CBK261760]", "% of control remaining": 88.7612}, {"smiles": "CCOc1cc(NC2CCN(C(=O)OC(C)(C)C)CC2)ncn1", "note": "[CBK306288]", "% of control remaining": 105.006}, {"smiles": "CCCc1cc(C(N)=O)c(NC(=O)c2cc(-c3ccc(C)o3)nc3ccccc23)s1", "note": "[CBK267766C]", "% of control remaining": 84.5116}, {"smiles": "Cc1ccc(C)c(NS(=O)(=O)c2cc(C(=O)NCc3ccccn3)ccc2C)c1", "note": "[CBK269110]", "% of control remaining": 109.758}, {"smiles": "Cc1cc(Br)c(NC(=O)COc2ccc(/C=C(\\C#N)C(N)=S)cc2)cc1C", "note": "[CBK269014]", "% of control remaining": 142.509}, {"smiles": "O=C(CN(c1ccccc1)S(=O)(=O)c1ccccc1[N+](=O)[O-])Nc1ccc(C(F)(F)F)cc1", "note": "[CBK267137]", "% of control remaining": 78.7999}, {"smiles": "Cc1ccc(CNC(=O)Cn2cc(-c3ccc(CN4CCC(C)CC4)cc3)nn2)cc1", "note": "[CBK164706]", "% of control remaining": 122.086}, {"smiles": "COc1cc(C2NC(=O)N(CCc3ccccc3)C(c3ccccc3)=C2C(C)=O)ccc1O", "note": "(centres unmarked) [CBK269024]", "% of control remaining": 121.515}, {"smiles": "Cn1nc(C(C)(C)C)cc1C(=O)N1CCC(N2C(=O)OCC2(C)C)CC1", "note": "[CBK044234]", "% of control remaining": 119.868}, {"smiles": "Nc1cccc(-c2cc(Nc3cccc(OCc4ccccc4)c3)ncn2)c1", "note": "[CBK090915]", "% of control remaining": 132.957}, {"smiles": "CN(C)CCP(=O)(c1ccccc1)c1ccccc1", "note": "[CBK026596]", "% of control remaining": 103.868}, {"smiles": "CC(=O)NC[C@H]1CN(c2ccc(-c3nnc(C(C)O)s3)c(F)c2)C(=O)O1", "note": "(some centres unmarked) [CBK017968]", "% of control remaining": 11.2033}, {"smiles": "COc1ccc(-c2noc(CSc3nnc(-c4ccncc4)n3C)n2)cc1", "note": "[CBK268245]", "% of control remaining": 177.249}, {"smiles": "O=C(O)CCNC(=O)c1ccc(NS(=O)(=O)c2ccc(C3CCCCC3)cc2)cc1", "note": "[CBK296991]", "% of control remaining": 129.314}, {"smiles": "C[C@H](c1ccccc1)n1c(=O)[nH]c2ncc(-c3ccco3)nc21", "note": "[CBK064415]", "% of control remaining": 149.784}, {"smiles": "Cc1ccc(S(=O)(=O)Nc2ccnc(-c3ccc(CN4C(=O)CSC4=O)cc3)n2)cc1", "note": "[CBK067925]", "% of control remaining": 124.884}, {"smiles": "Cc1nc2ccccc2[nH]/c1=N/O", "note": "[CBK018103]", "% of control remaining": 124.749}, {"smiles": "CCc1ccc(OCC(=O)Nc2ccc3oc(-c4ccc(F)cc4Cl)nc3c2)cc1", "note": "[CBK265010]", "% of control remaining": 100}, {"smiles": "CCN(CC)C(=O)CN1C(=O)C2(Nc3ccccc3C(=O)N2c2ccc(F)cc2)c2ccccc21", "note": "(centres unmarked) [CBK103751]", "% of control remaining": 91.0053}]}]}
